In this data set the test system is carboxypeptidase B pancréatique porcine. Briefly: Decoloration of single-amino-acid substrate AAFR by pancreatic carboxypeptidase B. The format is biochemical. As to conditions: CPB porcine 5,2 mol/l in hépès buffer; AAFR 5 mM (0,25 mM); 382 nm. The text has this: L'exemple ci-après vise à démontrer la nécessité d'utiliser la méthode et les composés de formule (I) de l'invention pour doser spécifiquement l'activité des CPN ou U, en particulier le TAFI, par rapport à d'autres carboxypeptidases basiques. 1. Le dosage est dans ce cas réalisé avec un substrat de la famille de composés décrites par Mock dans (14). Ce substrat est constitué d'un seul acide aminé porteur du radical chromophore anizylazoformyl (portion CH3OC6H4-N = N-CO-). L'acide aminé choisi est l'arginine, un acide aminé basique normalement hydrolysé par les carboxypeptidases B (1). Ce substrat est dénommé ci-après AAFR (AnizylAzoFormyArginine) ou MxAFR (4-MethoxyphenylAzoformylarginine). Ce substrat (0,25 mM) est mis en présence soit d'un échantillon de TAFI plasmatique, soit d'une solution de carboxypeptidase B pancréatique porcine (Sigma - Réf. C9584) à 5,2 mol/l. La diminution de coloration de chacun des deux échantillons est suivie au spectrophotomètre. Chacun des échantillons est traité selon le protocole suivant : • a) échantillon de départ : • TAFI plasmatique (présent dans un pool normal de plasmas - dilué au 1/20) ou • Carboxypeptidase B pancréatique porcine 5,2 mol/l (dans tampon hépès) • b) activation avec complexe thrombine-thrombomoduline-CaCl2 (voir exemple 2) pour l'échantillon de TAFI plasmatique. • c) addition de AAFR à 5 mM. • d) lecture DO à 382 nm.

The results in this text go back to patent publication EP1406920B1, “NOVEL CHROMOGENIC SUBSTANCES AND USE THEREOF FOR THE DETERMINATION OF CARBOXYPEPTIDASE ACTIVITIES” (Diagnostica Stago, priority 2001, dated 2003).

Turning to `COc1ccc(N=NC(=O)N[C@@H](CCCNC(=N)N)C(=O)O)cc1` [AAFR, 4-MethoxyphenylAzoformylarginine], the “DO de départ” value is recorded as 1.054 and the DO finale is listed as 0.445.
